# Test results from PubChem BioAssay AID330 (DTP/NCI, 2004).
# The list does not hold the whole screen: it is rich in T/C values a quarter to a half above the control, in often repeated tests (any T/C) and in doses without a T/C. Other doses and runs of a compound stand elsewhere. T/C is the treated group as % of the vehicle group. Some doses have a count of surviving animals in place of a T/C: the source files T/C as zero there, which appears to mark a toxic dose or a test without result, not a measured value. Some survivor counts are full or nearly so, which does not show that the dose was tolerated: survival well below the control is almost never listed, so the zero probably covers shortened survival too. Survivors were counted at the toxicity check, usually on the fifth day, unless a day is given; later deaths do not show. Schedules are NCI's codes, taken here to give the interval after Q, in days (D) or hours (H), and the number of doses after X. Some molecules as drawn cover several salts, stereoisomers or complexes of the source; a dose is that of the sample tested. For survival time, this PubChem deposit counts one and a half times the control or more as active, and values a quarter to a half above the control carry no call in these data; other NCI protocols may use other cut-offs. Some doses were run more than once; the results are listed from low to high. Some T/C values carry the count of animals alive at the toxicity check (mostly the fifth day); where none is given, no animal had died by that day.
# System: P388 leukemia ip, CD2F1 mice, survival T/C
# Test: NCI In Vivo Anticancer Drug Screen. Data for tumor model P388 Leukemia (intraperitoneal) in CD2F1 (CDF1) mice
# Conditions: T/C endpoint: median survival time, higher T/C = longer survival
# [1] = dose: 25.0 mg/kg/injection, schedule: Q04DX002 (ip), vehicle: saline with Tween-80
# [2] = dose: 50.0 mg/kg/injection, schedule: Q04DX002 (ip), vehicle: saline with Tween-80
# [3] = dose: 100.0 mg/kg/injection, schedule: Q04DX002 (ip), vehicle: saline with Tween-80
# [4] = dose: 12.5 mg/kg/injection, schedule: Q01DX009 (ip), vehicle: other
# [5] = dose: 50.0 mg/kg/injection, schedule: Q01DX009 (ip), vehicle: saline with Tween-80
# [6] = dose: 100.0 mg/kg/injection, schedule: Q01DX009 (ip), vehicle: saline with Tween-80
# [7] = dose: 200.0 mg/kg/injection, schedule: Q01DX009 (ip), vehicle: saline with Tween-80
# [8] = dose: 200.0 mg/kg/injection, schedule: Q01DX009 (ip), vehicle: saline
# [9] = dose: 400.0 mg/kg/injection, schedule: Q04DX002 (ip), vehicle: saline with Tween-80
# [10] = dose: 400.0 mg/kg/injection, schedule: Q04DX003 (ip), vehicle: saline with Tween-80
# [11] = dose: 200.0 mg/kg/injection, schedule: Q01DX005 (ip), vehicle: Klucel (hydroxypropylcellulose) (HPC)
# [12] = dose: 100.0 mg/kg/injection, schedule: Q01DX009 (ip), vehicle: Klucel (hydroxypropylcellulose) (HPC)
# [13] = dose: 200.0 mg/kg/injection, schedule: Q01DX009 (ip), vehicle: Klucel (hydroxypropylcellulose) (HPC)
# [14] = dose: 200.0 mg/kg/injection, schedule: Q01DX005 (ip), vehicle: saline
# [15] = dose: 50.0 mg/kg/injection, schedule: Q04DX003 (ip), vehicle: saline with Tween-80
smiles,measurement,setting,value
CNC(=O)n1c(N)nc(-c2ccccc2)c1-c1ccccc1,T/C,"dose: 12.5 mg/kg/injection, schedule: Q04DX002 (ip), vehicle: saline with Tween-80",125 % of control
same,T/C,[1],131 % of control
same,T/C,[2],132 % of control [5 of 6 alive]
same,survivor count,[3],2 of 6
CCC[CH2][Sn](=[S])[CH2]CCC,T/C,"dose: 3.13 mg/kg/injection, schedule: Q01DX009 (ip), vehicle: other",133 % of control
same,survivor count,"dose: 6.25 mg/kg/injection, schedule: Q01DX009 (ip), vehicle: other",3 of 6
same,T/C,[4],140 % of control
same,survivor count,[4],0 of 6
same,survivor count,"dose: 12.5 mg/kg/injection, schedule: Q04DX003 (ip), vehicle: other",4 of 6
same,survivor count,"dose: 25.0 mg/kg/injection, schedule: Q01DX009 (ip), vehicle: other",2 of 6
same,survivor count,"dose: 25.0 mg/kg/injection, schedule: Q04DX003 (ip), vehicle: other",4 of 6
same,survivor count,"dose: 50.0 mg/kg/injection, schedule: Q01DX009 (ip), vehicle: other",1 of 6
same,survivor count,"dose: 50.0 mg/kg/injection, schedule: Q04DX003 (ip), vehicle: other",0 of 6
same,survivor count,"dose: 100.0 mg/kg/injection, schedule: Q01DX009 (ip), vehicle: other",0 of 6
Cc1cc(NS(=O)(=O)c2ccc(N=Nc3cc(N=Nc4ccc(S(=O)(=O)Nc5cc(C)nc(C)n5)cc4)c4c(NC(=O)C(Cl)Cl)cccc4c3OC(=O)C(Cl)Cl)cc2)nc(C)n1 (tested in a mixture with another compound),T/C,"dose: 12.5 mg/kg/injection, schedule: Q01DX009 (ip), vehicle: saline with Tween-80",135 % of control
same,T/C,"dose: 25.0 mg/kg/injection, schedule: Q01DX009 (ip), vehicle: saline with Tween-80",133 % of control
same,T/C,[5],131 % of control
same,T/C,[6],135 % of control
same,survivor count,[6],2 of 6
same,survivor count,[7],3 of 6
same,T/C,[8],131 [5 of 6 alive] and 132 % of control
same,survivor count,[8],3 of 6
same,survivor count,"dose: 400.0 mg/kg/injection, schedule: Q01DX009 (ip), vehicle: saline with Tween-80",1 of 6
same,survivor count,"dose: 400.0 mg/kg/injection, schedule: Q01DX009 (ip), vehicle: saline",0 of 6
NC(=S)N/N=C1/C(=O)N(c2ccc(S(N)(=O)=O)cc2)C(=O)C1C(=O)Nc1ccc(S(N)(=O)=O)cc1 (configuration not stated),survivor count,"dose: 200.0 mg/kg/injection, schedule: Q04DX002 (ip), vehicle: saline with Tween-80",1 of 6
same,survivor count,[9],0 of 6
OCCN(CCCN(CCO)C(=S)S)C(=S)S.[Cu+2],survivor count,"dose: 100.0 mg/kg/injection, schedule: Q01DX005 (ip), vehicle: saline + Tween-80 + alcohol",0 of 5
same,survivor count,"dose: 200.0 mg/kg/injection, schedule: Q01DX005 (ip), vehicle: saline + Tween-80 + alcohol",0 of 5
Clc1nc(SC2=NCCN2)c2[nH]cnc2n1,T/C,"dose: 20.0 mg/kg/injection, schedule: Q01DX009 (ip), vehicle: saline with Tween-80",125 % of control
same,survivor count,"dose: 40.0 mg/kg/injection, schedule: Q01DX009 (ip), vehicle: saline with Tween-80",5 of 6
same,survivor count,"dose: 80.0 mg/kg/injection, schedule: Q01DX009 (ip), vehicle: saline with Tween-80",0 of 6
CC1(Cc2ccccc2)N=C1c1ccccc1 (configuration not stated),survivor count,[9],3 of 6
O=P(c1ccccc1)(c1ccccc1)c1ccccc1.O=P(c1ccccc1)(c1ccccc1)c1ccccc1.O=P(c1ccccc1)(c1ccccc1)c1ccccc1.O=P(c1ccccc1)(c1ccccc1)c1ccccc1.[Fe+3].[O-][Cl+3]([O-])([O-])O,survivor count,[10],0 of 6
COc1ccc(-c2ccc(OC)c(=O)cc2)c(OC)c1OC,survivor count,[11],3 of 6
CCCCc1ccc2nc(C)cc(N=[N+]=[N-])c2c1,survivor count,"dose: 240.0 mg/kg/injection, schedule: Q01DX005 (ip), vehicle: saline with Tween-80",2 of 6
C=CC12CCCCC1CCC(=O)C2 (configuration not stated),survivor count,[12],0 of 6
same,survivor count,[13],1 of 6
CCCCCCCCC(Cn1ccnc1)c1ccc(F)cc1 (configuration not stated),survivor count,"dose: 200.0 mg/kg/injection, schedule: Q04DX003 (ip), vehicle: saline with Tween-80",5 of 6
same,survivor count,[10],0 of 6
O=C(NC1CCCCC1)N1CCCC1,survivor count,[5],5 of 6
CCCCNC(c1ccc(N(CC)CC)cc1)C(Cl)(Cl)Cl (configuration not stated),T/C,[14],138 % of control
same,survivor count,"dose: 200.0 mg/kg/injection, schedule: Q01DX005 (ip), vehicle: water",2 of 6
same,survivor count,"dose: 400.0 mg/kg/injection, schedule: Q01DX005 (ip), vehicle: water",0 of 6
N#CCc1ccc(Cl)c(Cl)c1,survivor count,[15],3 of 6
c1ccc2c[s+]ccc2c1,survivor count,"dose: 200.0 mg/kg/injection, schedule: Q01DX009 (ip), vehicle: suspension in saline",6 of 6
same,survivor count,"dose: 400.0 mg/kg/injection, schedule: Q01DX009 (ip), vehicle: suspension in saline",1 of 6
CN(C)N=Nc1ccc(N(C)C)cc1,survivor count,"dose: 6.25 mg/kg/injection, schedule: Q01DX009 (ip), vehicle: Klucel (hydroxypropylcellulose) (HPC)",2 of 6
same,survivor count,"dose: 12.5 mg/kg/injection, schedule: Q01DX009 (ip), vehicle: Klucel (hydroxypropylcellulose) (HPC)",2 of 6
same,survivor count,"dose: 25.0 mg/kg/injection, schedule: Q01DX009 (ip), vehicle: Klucel (hydroxypropylcellulose) (HPC)",0 of 6
same,survivor count,"dose: 50.0 mg/kg/injection, schedule: Q01DX009 (ip), vehicle: Klucel (hydroxypropylcellulose) (HPC)",4 of 6
same,survivor count,[12],6 of 6
same,survivor count,[13],4 of 6
same,survivor count,"dose: 400.0 mg/kg/injection, schedule: Q01DX009 (ip), vehicle: Klucel (hydroxypropylcellulose) (HPC)",4 of 6
CCN(CC)Cc1c(O)ccc(C(C)=O)c1O,survivor count,[14],4 of 6
CS(=O)(=O)OCCN(CCOS(C)(=O)=O)c1cccc(Cl)c1,T/C,"dose: 5.0 mg/kg/injection, schedule: Q01DX009 (ip), vehicle: other",140 % of control
C[n+]1c2ccccc2cc2ccccc21,survivor count,[15],1 of 6
same,survivor count,"dose: 100.0 mg/kg/injection, schedule: Q04DX003 (ip), vehicle: saline with Tween-80",0 of 6
COc1ccc(OC)c(C(=O)c2ccccc2C(=O)O)c1,survivor count,[11],6 of 6
Cc1c2cnccc2c(CO)c2[nH]c3ccccc3c12,T/C,[1],125 and 128 % of control
same,T/C,[2],133 and 135 % of control
same,T/C,[3],143 % of control
BrCC[Se]c1ccccc1,survivor count,[7],0 of 6
